Results from paper PMC3431329.

Sequences of proteins named here, by UniProt entry; tags and fusion partners are left off.
UniProt Q99459: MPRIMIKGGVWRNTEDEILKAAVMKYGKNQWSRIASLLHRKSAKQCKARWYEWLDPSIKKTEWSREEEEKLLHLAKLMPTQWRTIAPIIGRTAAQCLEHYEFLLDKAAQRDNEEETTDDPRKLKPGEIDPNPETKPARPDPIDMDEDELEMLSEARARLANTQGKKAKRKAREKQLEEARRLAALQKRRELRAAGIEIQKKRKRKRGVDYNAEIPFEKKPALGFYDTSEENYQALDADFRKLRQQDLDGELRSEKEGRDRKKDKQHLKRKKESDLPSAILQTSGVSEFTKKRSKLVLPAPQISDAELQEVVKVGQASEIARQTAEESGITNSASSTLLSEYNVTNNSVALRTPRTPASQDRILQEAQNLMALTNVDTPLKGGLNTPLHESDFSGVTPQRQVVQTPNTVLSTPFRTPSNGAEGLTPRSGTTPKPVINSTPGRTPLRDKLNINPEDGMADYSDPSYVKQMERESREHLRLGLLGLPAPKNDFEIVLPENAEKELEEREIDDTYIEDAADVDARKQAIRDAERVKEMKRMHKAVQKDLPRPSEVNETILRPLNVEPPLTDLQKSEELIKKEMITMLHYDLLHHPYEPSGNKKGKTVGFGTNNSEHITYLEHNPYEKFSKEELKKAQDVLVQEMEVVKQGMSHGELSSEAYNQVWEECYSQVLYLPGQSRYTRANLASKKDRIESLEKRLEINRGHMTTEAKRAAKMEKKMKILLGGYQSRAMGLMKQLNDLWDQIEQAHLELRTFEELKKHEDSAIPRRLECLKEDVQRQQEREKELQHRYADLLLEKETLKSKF

Target: T1, human CCDC94 (coiled-coil domain containing 94), tagged bait (human) (UniProt Q9BW85)
T1 sequence: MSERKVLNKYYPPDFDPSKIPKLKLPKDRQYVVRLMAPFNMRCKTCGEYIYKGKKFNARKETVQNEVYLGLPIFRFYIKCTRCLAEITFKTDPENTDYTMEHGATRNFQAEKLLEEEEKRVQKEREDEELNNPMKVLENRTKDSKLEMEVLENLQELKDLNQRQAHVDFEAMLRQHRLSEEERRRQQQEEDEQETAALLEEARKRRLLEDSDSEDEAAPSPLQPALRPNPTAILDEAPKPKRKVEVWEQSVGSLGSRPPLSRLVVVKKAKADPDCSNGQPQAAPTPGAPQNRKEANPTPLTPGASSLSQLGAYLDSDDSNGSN
Assay: affinity purification with mass spectrometry; tandem-affinity purification (two rounds) of tagged human CCDC94 from detergent-solubilized 293T cell lines; trypsinized, LC-MS/MS

Substance: CDC5L (from UniProt Q99459 1-802)
- binding: binds

These are yes or no findings as the source states them, for the method shown. In cells and extracts the contact can be indirect. A yes stands for co-enrichment or nearness to the bait. Other partners may have been found. Tags and fused reporters may be left off the sequences shown.
